# Assay results from publication doi:10.1101/2025.02.18.638932, “CHIP protects lysosomes from CLN4 mutant-induced membrane damages” (bioRxiv, 2025).
# Amino acid sequences for entries named in this document (tags omitted).
# UniProt O95670: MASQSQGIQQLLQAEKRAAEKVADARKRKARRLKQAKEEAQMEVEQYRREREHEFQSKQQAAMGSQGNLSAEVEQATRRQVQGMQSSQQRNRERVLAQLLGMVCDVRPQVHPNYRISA
# UniProt Q9UNE7: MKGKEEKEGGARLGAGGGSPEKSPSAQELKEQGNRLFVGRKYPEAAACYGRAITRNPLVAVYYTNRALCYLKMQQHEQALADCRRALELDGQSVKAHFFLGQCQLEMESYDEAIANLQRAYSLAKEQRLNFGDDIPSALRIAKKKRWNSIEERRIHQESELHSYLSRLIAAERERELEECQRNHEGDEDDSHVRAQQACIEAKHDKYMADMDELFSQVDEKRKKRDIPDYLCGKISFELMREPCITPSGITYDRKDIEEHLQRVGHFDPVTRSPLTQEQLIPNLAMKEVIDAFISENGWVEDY
# Results are given in words; binding and its absence hold for the method and conditions named. Binding seen in cells or lysates may run through a third protein. Some results given as binding are weak or reduced against the parent protein; the word gives no strength. Where a sequence is shown, tags or fusion partners need not be part of it.
# Key:
# [1] = biological target: T1, FLAG-tagged WT DNAJC5 (human) (UniProt Q9H3Z4); assay: co-IP; 293T cells transfected with FLAG-DNAJC5, fractionated into cytosol and membrane fractions; ANTI-FLAG M2 Affinity Gel 1 h at 4 °C, washed with PBS; immunoblotting for endogenous ATP6V1G2
# T1 sequence: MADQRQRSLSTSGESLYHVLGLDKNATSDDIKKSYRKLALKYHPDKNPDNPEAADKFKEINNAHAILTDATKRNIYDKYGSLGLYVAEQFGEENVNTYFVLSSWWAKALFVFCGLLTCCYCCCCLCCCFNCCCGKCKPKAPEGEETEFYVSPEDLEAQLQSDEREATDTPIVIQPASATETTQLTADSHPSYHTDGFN
# [2] = biological target: T1, FLAG-tagged WT DNAJC5 (human); assay: co-IP; HEK293T cells transfected with FLAG-tagged DNAJC5 variants or empty vector together with MYC-tagged CHIP; FLAG beads pulled down DNAJC5; bound proteins by immunoblotting
substance,measurement,setting,value
endogenous ATP6V1G2 (from UniProt O95670 1-118),binding,[1],binds
MYC-tagged CHIP (from UniProt Q9UNE7 1-303) (enzyme),binding,[2],binds
